Assay results: PubChem BioAssay AID504834 (National Center for Advancing Translational Sciences (NCATS), 2011)
The whole screen tested about 320,000 compounds, of which about 22,000 (6.9%) were called active. The inconclusive results got no clear call from the source; some entries with a clear call stand among them for comparison. The call rests on the fitted dose curve; in most records, active means well fitted inhibition curve with a large enough effect; inconclusive means small, poorly fitted or top-dose-only effect, or another doubt; inactive means no such curve, though single readings can be large or run the other way. A potency beside an inconclusive call is a rough fit, not a confirmed value.

assay: Primary qHTS for delayed death inhibitors of the malarial parasite plastid, 96 hour incubation; conditions: P. falciparum luciferase reporter growth; series mostly up to 28.7 µM; activity change, negative = inhibition: at the top concentration
How it was run: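 Two-generation exposure (96 h) targets delayed-death phenotype. Reporter parasites carrying integrated firefly luciferase, in red cells at 2% hematocrit and 0.05% parasitemia final, kept at 37 C, 5% CO2; luminescence loss indicates inhibition.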
On the % scale 0 is the no-effect control and ±100 the full control effect; potency means the concentration at half of the fitted maximal effect.

| SMILES | activity change, negative = inhibition | Potency |
| --- | --- | --- |
| O=C(NNc1ncccc1-n1cccc1)c1ccc(Cl)cc1 | inactive: 45.5% |  |
| CCOc1ccc(Cc2nnc(SCC(=O)Nc3c(C)cccc3C)[nH]c2=O)cc1 | inactive: -2.42% |  |
| Cc1cc(NS(=O)(=O)c2ccc(NC(=O)CCCOc3ccccc3C)cc2)nc(C)n1 |  | inconclusive: 16.5 µM [inhibitor, single point] |
| CCOC(=O)C1(CCOC)CCN(C2C3CC4CC(C3)CC2C4)CC1 (centres undefined) | inactive: 5.59% |  |
| CCn1cc(CN2CCCC(C(=O)c3sccc3C)C2)cn1 (centres undefined) |  | inconclusive: 18.5 µM [inhibitor, single point] |
| COc1ccc(-c2cc(C(F)(F)F)n3nc(C(=O)NCc4ccco4)cc3n2)cc1 |  | inconclusive: 13.1 µM [inhibitor, single point] |
| O=C(CN(C(=O)CNC(=O)c1cccs1)c1cccc(F)c1)NC1CCCCC1 | inactive: 8.81% |  |
| O=C(Nc1ccc(Cl)cc1)Nc1nnc(SCc2ccccc2)s1 |  | inconclusive: 11.7 µM [inhibitor, single point] |
| CCN(CC)CCNC(=O)c1ccc(NC(=O)c2cc(-c3ccco3)nc3ccccc23)cc1 |  | inconclusive: 18.5 µM [inhibitor, single point] |
| CCOc1cc(C(=O)OCc2cccc(OC)c2OC)ccc1OCC(=O)N1CCOCC1 |  | inconclusive: 10.4 µM [inhibitor, single point] |
| CC(=O)Nc1cccc(NC(=O)CS(=O)(=O)c2cn(CC(=O)N(C(C)C)C(C)C)c3ccccc23)c1 |  | active: 11.7 µM |
| C[C@@H](C(=O)NCCc1ccc(F)cc1)N1C(=O)N2CCc3c([nH]c4ccccc34)[C@@]2(C)C1=O |  | inconclusive: 11.7 µM [inhibitor, single point] |
| Cc1ccc(NC(=O)C2CCN(S(=O)(=O)c3ccc4c(c3)NC(=O)C(C)S4)CC2)cc1Cl (centres undefined) |  | inconclusive: 18.5 µM [inhibitor, single point] |
| CC(=O)c1cccc(N(C(=O)c2csnn2)C(C(=O)NC2CCCC2)c2ccccc2)c1 (centres undefined) | inactive: 15% |  |
| O=C(COC(=O)c1ccccc1[N+](=O)[O-])Nc1nnc(-c2ccccc2)o1 | inactive: -2.04% |  |
| O=C(/C=C/c1cn(-c2ccccc2)nc1-c1cccs1)NCCN1CCOCC1 |  | inconclusive: 11.7 µM [inhibitor, single point] |
| c1ccc2c(NCC3CCCO3)nc(N3CCOCC3)nc2c1 (centres undefined) | inactive: 11.4% |  |
| O=C(CCNC(=O)c1ccco1)NCCc1ccc(Cl)cc1 |  | inconclusive: 14.7 µM [inhibitor, partial curve, poor fit] |
| CCOC(=O)N1CCN(C(=O)CSCc2nc(-c3ccccc3F)oc2C)CC1 |  | inconclusive: 0.522 µM [inhibitor, full curve] |

Given bar-delimited: part of the list above.
SMILES | activity change, negative = inhibition | Potency
O=C(CCNC(=O)c1ccco1)NCCc1ccc(Cl)cc1 |  | inconclusive: 14.7 µM [inhibitor, partial curve, poor fit]
CCOC(=O)N1CCN(C(=O)CSCc2nc(-c3ccccc3F)oc2C)CC1 |  | inconclusive: 0.522 µM [inhibitor, full curve]
